# Reference: PubChem BioAssay AID461 (SRMLSC, 2006)
# The other results are listed elsewhere or left out.
# Assay: reducers of endogenous Her2 protein level, primary screen, SKBR3 breast tumor cells, AlphaScreen, ATP viability (AID 461);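 note: percent of carrier control wells set as 100% viability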
# Conditions: 18-24 h, measured here: SKBR3 viability, ATP luminescence, at 10 µM, stronger effect = higher value
row,Structure (SMILES),viability [%]
1,CP(=O)(Nc1ccccn1)Oc1ccccc1 (stereo not drawn),88
2,CP(=O)(Nc1ccc2c(c1)OCCO2)Oc1ccccc1 (stereo not drawn),114
3,O=P(Nc1nccs1)(c1ccccc1)c1ccccc1,102
4,CN(C)CCOC(=O)C(O)(c1ccccc1)C1CCCCC1 (stereo not drawn),102
5,Cc1ccc(C)c(NP(C)(=O)Oc2ccccc2)c1 (stereo not drawn),113
6,CCOP1(=S)c2c(C)nn(CCC#N)c2N=C(c2ccccc2F)N1C (stereo not drawn),114
7,O=C(COc1ccccc1)OC1CN2CCC1CC2 (stereo not drawn),94.5
8,CP(=S)(Nn1cnnc1)Oc1ccccc1 (stereo not drawn),101
